PubChem BioAssay AID1259254, NCATS, 2017
Purpose: 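Gene knock-downs that lead to re-replication, shown by excess G2 DNA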 (primary screen). Cell system: human HCT116 colorectal cancer cells. Knock-down reagent: single siRNA against human genes. Time to read-out: 3 days. Read-out: 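Nuclei stained with Hoechst and imaged; cell-cycle phase assigned by DNA content; G2 share scaled per plate, non-targeting siRNA 0%, GMNN siRNA 100%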. Direction: G2 robust z-score and G2 cells, % of GMNN control: higher = more G2 cells, more excess DNA replication. Active means: 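An siRNA counts as active if its G2 robust z-score lies at least 5 MADs above the screen median; here such calls match roughly 38% of GMNN control or more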.
The deposit covers about 59,000 reagents; shown is a random part of them. About 1,550 of them (2.6%) count as active. 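G2 share is only a proxy for re-replication; each gene was hit by three separate siRNAs, and active genes were retested.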 A number with no mark means an inactive call. Further read-outs or replicates are left out here. The record does not give: the amount of reagent.

| Gene | PubChem SID | G2 robust z-score | G2 cells, % of GMNN control |
| --- | --- | --- | --- |
| LOC81787 (retired record) | SID160724583 | -0.837 | -2.92 |
| LOC81787 (retired record) | SID160735012 | -0.707 | -2.01 |
| LOC81787 (retired record) | SID160750965 | 1.37 | 12.6 |
| MXD3 (MAX dimerization protein 3) | SID160724592 | -0.594 | -1.21 |
| MXD3 (MAX dimerization protein 3) | SID160751141 | -0.423 | -0.00531 |
| MXD3 (MAX dimerization protein 3) | SID160751142 | -0.33 | 0.647 |
| TMEM115 (transmembrane protein 115) | SID160729875 | -0.452 | -0.211 |
| TMEM115 (transmembrane protein 115) | SID160729876 | 0.826 | 8.78 |
| TMEM115 (transmembrane protein 115) | SID160729877 | -0.0495 | 2.62 |
| ZNF555 (zinc finger protein 555) | SID160758673 | 0.0625 | 3.41 |
| ZNF555 (zinc finger protein 555) | SID160758674 | 0.637 | 7.45 |
| ZNF555 (zinc finger protein 555) | SID160758675 | 0.0829 | 3.55 |
| LAMB3 (laminin subunit beta 3) | SID160731191 | 0.713 | 7.98 |
| LAMB3 (laminin subunit beta 3) | SID160776508 | -0.494 | -0.509 |
| LAMB3 (laminin subunit beta 3) | SID160776509 | 5.96 (active) | 44.9 |
| ZNF366 (zinc finger protein 366) | SID160760262 | 0.901 | 9.31 |
| ZNF366 (zinc finger protein 366) | SID160760263 | -0.149 | 1.92 |
| ZNF366 (zinc finger protein 366) | SID160760265 | 0.912 | 9.38 |
| GRTP1 (growth hormone regulated TBC protein 1) | SID160749403 | -0.91 | -3.44 |
| GRTP1 (growth hormone regulated TBC protein 1) | SID160749404 | -0.186 | 1.66 |
| GRTP1 (growth hormone regulated TBC protein 1) | SID160749405 | 0.205 | 4.41 |
| KIAA0232 | SID160723058 | 1.05 | 10.3 |
| KIAA0232 | SID160723059 | 0.444 | 6.09 |
| KIAA0232 | SID160723060 | -0.822 | -2.82 |
| PAG1 | SID160744454 | 1.7 | 14.9 |
| PAG1 | SID160744455 | -0.104 | 2.23 |
| PAG1 | SID160744458 | -1.42 | -7.01 |
| MLXIPL (MLX interacting protein like) | SID160740008 | -0.0379 | 2.7 |
| MLXIPL (MLX interacting protein like) | SID160740009 | 3.55 | 27.9 |
| MLXIPL (MLX interacting protein like) | SID160740010 | -1.17 | -5.28 |
| EEF1D (eukaryotic translation elongation factor 1 delta) | SID160730743 | -0.574 | -1.07 |
| EEF1D (eukaryotic translation elongation factor 1 delta) | SID160758357 | -1.27 | -5.97 |
| EEF1D (eukaryotic translation elongation factor 1 delta) | SID160758375 | -0.0464 | 2.64 |
| SUCLG2P2 (SUCLG2 pseudogene 2) | SID160762891 | 0.635 | 7.44 |
| SUCLG2P2 (SUCLG2 pseudogene 2) | SID160762893 | -0.258 | 1.15 |
| SUCLG2P2 (SUCLG2 pseudogene 2) | SID160762894 | -0.63 | -1.47 |
| FXYD1 (FXYD domain containing ion transport regulator 1) | SID160714480 | 1.64 | 14.5 |
| FXYD1 (FXYD domain containing ion transport regulator 1) | SID160731431 | -1.36 | -6.62 |
| FXYD1 (FXYD domain containing ion transport regulator 1) | SID160731433 | -0.495 | -0.513 |
| PDIA4 (protein disulfide isomerase family A member 4) | SID160722592 | 5.36 (active) | 40.7 |
| PDIA4 (protein disulfide isomerase family A member 4) | SID160722593 | -0.888 | -3.28 |
| PDIA4 (protein disulfide isomerase family A member 4) | SID160732207 | -1.14 | -5.07 |
| LOC649935 (retired record) | SID160726162 | 2.36 | 19.5 |
| LOC649935 (retired record) | SID160726163 | -0.639 | -1.53 |
| LOC649935 (retired record) | SID160770464 | 0.418 | 5.91 |
| TCEAL5 (transcription elongation factor A like 5) | SID160764449 | 1.34 | 12.4 |
| TCEAL5 (transcription elongation factor A like 5) | SID160764450 | -0.341 | 0.565 |
| TCEAL5 (transcription elongation factor A like 5) | SID160764451 | 1.05 | 10.4 |
| CEP170 (centrosomal protein 170) | SID160723276 | -0.336 | 0.604 |
| CEP170 (centrosomal protein 170) | SID160723277 | 0.516 | 6.6 |
| CEP170 (centrosomal protein 170) | SID160723278 | 0.123 | 3.83 |
| KLF12 (KLF transcription factor 12) | SID160730349 | -0.803 | -2.68 |
| KLF12 (KLF transcription factor 12) | SID160730350 | 4.33 | 33.4 |
| KLF12 (KLF transcription factor 12) | SID160730352 | -0.276 | 1.02 |
| PTAR1 (protein prenyltransferase alpha subunit repeat containing 1) | SID160765470 | 0.957 | 9.7 |
| PTAR1 (protein prenyltransferase alpha subunit repeat containing 1) | SID160765471 | 1.76 | 15.4 |
| PTAR1 (protein prenyltransferase alpha subunit repeat containing 1) | SID160765472 | 0.157 | 4.07 |
| MKI67 (marker of proliferation Ki-67) | SID160777270 | -0.196 | 1.59 |
| MKI67 (marker of proliferation Ki-67) | SID160777271 | -0.697 | -1.94 |
| MKI67 (marker of proliferation Ki-67) | SID160777272 | -0.396 | 0.18 |
| NOTCH4 (notch receptor 4) | SID160731299 | -0.647 | -1.59 |
| NOTCH4 (notch receptor 4) | SID160778161 | 0.5 | 6.48 |
| NOTCH4 (notch receptor 4) | SID160778162 | 4.24 | 32.8 |
| HEMK1 | SID160776065 | -0.641 | -1.54 |
| HEMK1 | SID160776076 | 0.147 | 4 |
| HEMK1 | SID160776087 | -1.17 | -5.25 |
| KRTAP5-4 (keratin associated protein 5-4) | SID160725173 | 1.06 | 10.4 |
| KRTAP5-4 (keratin associated protein 5-4) | SID160733180 | 0.136 | 3.92 |
| KRTAP5-4 (keratin associated protein 5-4) | SID160765580 | -0.915 | -3.47 |

Records above called active, once more:
| Gene | PubChem SID | G2 robust z-score | G2 cells, % of GMNN control |
| --- | --- | --- | --- |
| LAMB3 (laminin subunit beta 3) | SID160776509 | 5.96 (active) | 44.9 |
| PDIA4 (protein disulfide isomerase family A member 4) | SID160722592 | 5.36 (active) | 40.7 |
